Laboratory results as given in paper PMC4226561.
These are yes or no findings as the source states them, for the method shown. For part of these data: Binding seen in cells or lysates may run through a third protein. Some binding calls cover weakened binding; strength is not graded here. Tags and fused reporters may be left off the sequences shown.

T1: KOR1C (AA 70 to 621), split-YFP (BiFC) fusion (Arabidopsis thaliana) (UniProt Q38890)
T1 sequence: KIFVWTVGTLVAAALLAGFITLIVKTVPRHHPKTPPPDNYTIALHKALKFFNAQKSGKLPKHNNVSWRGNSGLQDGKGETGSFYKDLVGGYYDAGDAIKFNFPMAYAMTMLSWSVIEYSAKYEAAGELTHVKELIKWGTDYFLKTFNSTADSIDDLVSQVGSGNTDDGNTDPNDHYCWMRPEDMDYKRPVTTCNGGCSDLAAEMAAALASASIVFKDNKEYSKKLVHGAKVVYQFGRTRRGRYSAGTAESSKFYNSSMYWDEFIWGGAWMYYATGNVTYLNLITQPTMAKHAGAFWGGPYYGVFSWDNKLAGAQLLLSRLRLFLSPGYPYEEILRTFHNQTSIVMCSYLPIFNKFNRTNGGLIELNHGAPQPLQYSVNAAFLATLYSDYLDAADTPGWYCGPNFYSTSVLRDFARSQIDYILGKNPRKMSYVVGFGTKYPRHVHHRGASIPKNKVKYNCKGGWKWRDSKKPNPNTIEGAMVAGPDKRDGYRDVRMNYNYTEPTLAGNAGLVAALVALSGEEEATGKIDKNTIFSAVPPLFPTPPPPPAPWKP

T2: KOR1TMD, only the transmembrane domain of KOR1 (AA 70 to 94), MbYTH fusion (Arabidopsis thaliana) (UniProt Q38890)
T2 sequence: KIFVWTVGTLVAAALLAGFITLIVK

T3: KORRIGAN1 (KOR1), complete protein (AA 1 to 621), MbYTH fusion (Arabidopsis thaliana) (UniProt Q38890)
T3 sequence: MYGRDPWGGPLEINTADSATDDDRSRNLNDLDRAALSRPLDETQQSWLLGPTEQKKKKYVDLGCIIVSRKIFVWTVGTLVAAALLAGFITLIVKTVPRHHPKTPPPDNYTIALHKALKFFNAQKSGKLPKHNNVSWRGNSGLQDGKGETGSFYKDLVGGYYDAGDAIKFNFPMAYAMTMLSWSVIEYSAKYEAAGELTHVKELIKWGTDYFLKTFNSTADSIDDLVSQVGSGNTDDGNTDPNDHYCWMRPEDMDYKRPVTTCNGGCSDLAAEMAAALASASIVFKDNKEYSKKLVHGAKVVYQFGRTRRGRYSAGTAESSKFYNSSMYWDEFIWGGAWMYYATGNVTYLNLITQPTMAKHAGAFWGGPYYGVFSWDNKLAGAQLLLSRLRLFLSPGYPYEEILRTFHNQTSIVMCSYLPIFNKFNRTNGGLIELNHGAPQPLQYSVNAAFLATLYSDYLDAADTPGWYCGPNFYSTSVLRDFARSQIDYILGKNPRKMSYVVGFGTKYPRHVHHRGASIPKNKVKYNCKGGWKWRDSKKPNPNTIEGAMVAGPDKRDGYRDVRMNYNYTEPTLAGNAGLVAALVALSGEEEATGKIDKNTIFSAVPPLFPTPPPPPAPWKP


How the values were obtained:
[1] = molecular target: T1, KOR1C (AA 70 to 621), split-YFP (BiFC) fusion (Arabidopsis thaliana); assay: split reporter; BiFC: Y/N and Y/C fragments of YFP each linked to the N-terminus of the proteins, transiently expressed in leaves of 3-week-old N. benthamiana; YFP fluorescence by confocal microscopy 3 days after infiltration
[2] = molecular target: KOR1N (AA 1 to 94), split-YFP (BiFC) fusion (Arabidopsis thaliana) (UniProt Q38890); assay: as above
[3] = molecular target: T2, KOR1TMD, only the transmembrane domain of KOR1 (AA 70 to 94), MbYTH fusion (Arabidopsis thaliana); assay: two-hybrid; split-ubiquitin membrane-based yeast two-hybrid (MbYTH) in S. cerevisiae NMY51; bait fused to Cub-TF, prey to NubG; 100 colonies of each combination spotted on selective medium with 3-AT, 30°C, three days, grown spots counted; called 'in vitro' by the paper
[4] = molecular target: T3, KORRIGAN1 (KOR1), complete protein (AA 1 to 621), MbYTH fusion (Arabidopsis thaliana); assay: as above

| binding [1] | binding [3] | Binder | further results |
| --- | --- | --- | --- |
| binds |  | KOR1C (AA 70 to 621), split-YFP (BiFC) fusion (domain or fragment, UniProt Q38890 70-621) KIFVWTVGTLVAAALLAGFITLIVKTVPRHHPKTPPPDNYTIALHKALKFFNAQKSGKLPKHNNVSWRGNSGLQDGKGETGSFYKDLVGGYYDAGDAIKFNFPMAYAMTMLSWSVIEYSAKYEAAGELTHVKELIKWGTDYFLKTFNSTADSIDDLVSQVGSGNTDDGNTDPNDHYCWMRPEDMDYKRPVTTCNGGCSDLAAEMAAALASASIVFKDNKEYSKKLVHGAKVVYQFGRTRRGRYSAGTAESSKFYNSSMYWDEFIWGGAWMYYATGNVTYLNLITQPTMAKHAGAFWGGPYYGVFSWDNKLAGAQLLLSRLRLFLSPGYPYEEILRTFHNQTSIVMCSYLPIFNKFNRTNGGLIELNHGAPQPLQYSVNAAFLATLYSDYLDAADTPGWYCGPNFYSTSVLRDFARSQIDYILGKNPRKMSYVVGFGTKYPRHVHHRGASIPKNKVKYNCKGGWKWRDSKKPNPNTIEGAMVAGPDKRDGYRDVRMNYNYTEPTLAGNAGLVAALVALSGEEEATGKIDKNTIFSAVPPLFPTPPPPPAPWKP |  |
| binds weakly |  | KOR1N (AA 1 to 94), split-YFP (BiFC) fusion (domain or fragment, UniProt Q38890 1-94) MYGRDPWGGPLEINTADSATDDDRSRNLNDLDRAALSRPLDETQQSWLLGPTEQKKKKYVDLGCIIVSRKIFVWTVGTLVAAALLAGFITLIVK | binding [2]: binds |
|  | binds | KIFVWTVGTLVAAALLAGFITLIVK (domain or fragment, UniProt Q38890 70-94) [KOR1TMD, only the transmembrane domain of KOR1 (AA 70 to 94), MbYTH fusion] |  |
|  | no binding | KOR1NOTMD, KOR1 without the transmembrane domain (AA 1 to 69+95 to 621), MbYTH prey (domain or fragment, UniProt Q38890) MYGRDPWGGPLEINTADSATDDDRSRNLNDLDRAALSRPLDETQQSWLLGPTEQKKKKYVDLGCIIVSRTVPRHHPKTPPPDNYTIALHKALKFFNAQKSGKLPKHNNVSWRGNSGLQDGKGETGSFYKDLVGGYYDAGDAIKFNFPMAYAMTMLSWSVIEYSAKYEAAGELTHVKELIKWGTDYFLKTFNSTADSIDDLVSQVGSGNTDDGNTDPNDHYCWMRPEDMDYKRPVTTCNGGCSDLAAEMAAALASASIVFKDNKEYSKKLVHGAKVVYQFGRTRRGRYSAGTAESSKFYNSSMYWDEFIWGGAWMYYATGNVTYLNLITQPTMAKHAGAFWGGPYYGVFSWDNKLAGAQLLLSRLRLFLSPGYPYEEILRTFHNQTSIVMCSYLPIFNKFNRTNGGLIELNHGAPQPLQYSVNAAFLATLYSDYLDAADTPGWYCGPNFYSTSVLRDFARSQIDYILGKNPRKMSYVVGFGTKYPRHVHHRGASIPKNKVKYNCKGGWKWRDSKKPNPNTIEGAMVAGPDKRDGYRDVRMNYNYTEPTLAGNAGLVAALVALSGEEEATGKIDKNTIFSAVPPLFPTPPPPPAPWKP |  |
|  |  | KORRIGAN1 (KOR1), complete protein (AA 1 to 621), MbYTH fusion (protein, UniProt Q38890 1-621) MYGRDPWGGPLEINTADSATDDDRSRNLNDLDRAALSRPLDETQQSWLLGPTEQKKKKYVDLGCIIVSRKIFVWTVGTLVAAALLAGFITLIVKTVPRHHPKTPPPDNYTIALHKALKFFNAQKSGKLPKHNNVSWRGNSGLQDGKGETGSFYKDLVGGYYDAGDAIKFNFPMAYAMTMLSWSVIEYSAKYEAAGELTHVKELIKWGTDYFLKTFNSTADSIDDLVSQVGSGNTDDGNTDPNDHYCWMRPEDMDYKRPVTTCNGGCSDLAAEMAAALASASIVFKDNKEYSKKLVHGAKVVYQFGRTRRGRYSAGTAESSKFYNSSMYWDEFIWGGAWMYYATGNVTYLNLITQPTMAKHAGAFWGGPYYGVFSWDNKLAGAQLLLSRLRLFLSPGYPYEEILRTFHNQTSIVMCSYLPIFNKFNRTNGGLIELNHGAPQPLQYSVNAAFLATLYSDYLDAADTPGWYCGPNFYSTSVLRDFARSQIDYILGKNPRKMSYVVGFGTKYPRHVHHRGASIPKNKVKYNCKGGWKWRDSKKPNPNTIEGAMVAGPDKRDGYRDVRMNYNYTEPTLAGNAGLVAALVALSGEEEATGKIDKNTIFSAVPPLFPTPPPPPAPWKP | binding [4]: binds |
